Source: the supplement of paper PMC12819154, “High-throughput peptide-centric local stability assay extends protein–ligand identification to membrane proteins, tissues and bacteria” (Nature Structural & Molecular Biology, 2025)
This is one part of the list. Most values lie at the level of the controls, where differences are scatter.

Amino acid sequences for entries named in this document (tags omitted). A change or cut given only in a name is not applied to a line headed by its entry.
UniProt Q8BTY2: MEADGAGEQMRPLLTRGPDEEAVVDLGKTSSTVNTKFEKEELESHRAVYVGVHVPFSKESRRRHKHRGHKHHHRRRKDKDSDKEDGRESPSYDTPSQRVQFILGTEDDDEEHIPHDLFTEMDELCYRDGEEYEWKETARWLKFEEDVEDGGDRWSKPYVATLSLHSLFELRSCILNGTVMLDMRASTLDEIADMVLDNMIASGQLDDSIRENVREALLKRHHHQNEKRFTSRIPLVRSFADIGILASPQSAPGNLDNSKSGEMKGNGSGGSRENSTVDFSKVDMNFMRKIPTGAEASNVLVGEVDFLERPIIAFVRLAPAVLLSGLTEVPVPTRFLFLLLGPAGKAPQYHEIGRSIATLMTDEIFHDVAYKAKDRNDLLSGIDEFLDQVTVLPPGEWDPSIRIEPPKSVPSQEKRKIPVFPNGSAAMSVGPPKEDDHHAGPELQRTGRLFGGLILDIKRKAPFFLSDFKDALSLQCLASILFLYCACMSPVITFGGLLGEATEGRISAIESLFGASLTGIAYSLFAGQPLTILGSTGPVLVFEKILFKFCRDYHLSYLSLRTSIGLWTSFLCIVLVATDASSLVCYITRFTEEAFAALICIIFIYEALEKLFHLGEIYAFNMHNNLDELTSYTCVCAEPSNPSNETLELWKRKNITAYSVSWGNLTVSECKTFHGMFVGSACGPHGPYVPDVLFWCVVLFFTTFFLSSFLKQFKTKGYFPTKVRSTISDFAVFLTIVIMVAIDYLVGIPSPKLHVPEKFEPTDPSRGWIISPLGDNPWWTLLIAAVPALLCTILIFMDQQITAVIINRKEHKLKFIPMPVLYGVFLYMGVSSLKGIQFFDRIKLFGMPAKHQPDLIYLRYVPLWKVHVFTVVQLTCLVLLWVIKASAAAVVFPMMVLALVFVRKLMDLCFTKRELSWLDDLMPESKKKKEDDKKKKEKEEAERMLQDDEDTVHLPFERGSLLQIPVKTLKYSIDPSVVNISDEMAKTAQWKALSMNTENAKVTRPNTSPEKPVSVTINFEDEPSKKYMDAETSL
UniProt Q8BQR4: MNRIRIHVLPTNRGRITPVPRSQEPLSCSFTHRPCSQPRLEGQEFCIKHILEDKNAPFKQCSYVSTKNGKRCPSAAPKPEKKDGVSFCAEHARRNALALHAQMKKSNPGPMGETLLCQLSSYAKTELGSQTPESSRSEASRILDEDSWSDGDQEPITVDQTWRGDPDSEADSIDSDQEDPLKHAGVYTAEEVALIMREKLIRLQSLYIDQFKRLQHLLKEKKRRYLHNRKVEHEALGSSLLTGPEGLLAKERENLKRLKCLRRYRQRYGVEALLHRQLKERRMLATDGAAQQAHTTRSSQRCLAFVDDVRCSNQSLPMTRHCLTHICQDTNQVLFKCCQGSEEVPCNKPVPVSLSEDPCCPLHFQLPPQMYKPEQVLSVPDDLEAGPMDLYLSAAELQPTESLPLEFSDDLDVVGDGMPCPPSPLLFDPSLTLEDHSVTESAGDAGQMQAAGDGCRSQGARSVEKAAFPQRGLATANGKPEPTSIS
UniProt Q8BTQ0: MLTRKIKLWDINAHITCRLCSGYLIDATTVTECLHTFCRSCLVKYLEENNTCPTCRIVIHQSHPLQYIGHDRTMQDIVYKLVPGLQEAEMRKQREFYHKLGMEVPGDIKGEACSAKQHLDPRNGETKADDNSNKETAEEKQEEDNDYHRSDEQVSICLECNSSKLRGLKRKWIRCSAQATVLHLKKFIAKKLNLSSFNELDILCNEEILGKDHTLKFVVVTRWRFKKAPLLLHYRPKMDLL
UniProt Q8BMS4: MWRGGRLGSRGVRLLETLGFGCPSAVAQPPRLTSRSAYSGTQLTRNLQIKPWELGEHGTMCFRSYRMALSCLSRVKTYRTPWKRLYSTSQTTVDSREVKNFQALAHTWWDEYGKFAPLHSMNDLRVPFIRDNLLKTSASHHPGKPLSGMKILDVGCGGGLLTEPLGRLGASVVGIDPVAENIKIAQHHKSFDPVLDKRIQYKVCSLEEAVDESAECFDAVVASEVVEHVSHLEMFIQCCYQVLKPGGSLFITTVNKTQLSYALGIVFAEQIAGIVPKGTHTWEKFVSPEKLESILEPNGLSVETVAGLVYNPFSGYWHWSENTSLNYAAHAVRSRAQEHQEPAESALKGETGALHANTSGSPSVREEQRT
UniProt Q8BMJ7: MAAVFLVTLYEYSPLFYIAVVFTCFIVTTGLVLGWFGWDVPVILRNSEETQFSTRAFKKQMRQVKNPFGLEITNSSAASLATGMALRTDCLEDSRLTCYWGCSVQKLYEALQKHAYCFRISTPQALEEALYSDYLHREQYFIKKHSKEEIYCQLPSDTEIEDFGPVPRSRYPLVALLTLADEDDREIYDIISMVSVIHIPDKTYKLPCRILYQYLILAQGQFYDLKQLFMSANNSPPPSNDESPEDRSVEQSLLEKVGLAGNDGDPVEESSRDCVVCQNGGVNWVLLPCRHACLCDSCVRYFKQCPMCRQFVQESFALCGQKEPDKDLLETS
UniProt Q8BTE0: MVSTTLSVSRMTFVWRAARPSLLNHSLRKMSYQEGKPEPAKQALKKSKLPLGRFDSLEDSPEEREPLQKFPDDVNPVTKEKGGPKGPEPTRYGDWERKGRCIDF
UniProt Q8BIH0: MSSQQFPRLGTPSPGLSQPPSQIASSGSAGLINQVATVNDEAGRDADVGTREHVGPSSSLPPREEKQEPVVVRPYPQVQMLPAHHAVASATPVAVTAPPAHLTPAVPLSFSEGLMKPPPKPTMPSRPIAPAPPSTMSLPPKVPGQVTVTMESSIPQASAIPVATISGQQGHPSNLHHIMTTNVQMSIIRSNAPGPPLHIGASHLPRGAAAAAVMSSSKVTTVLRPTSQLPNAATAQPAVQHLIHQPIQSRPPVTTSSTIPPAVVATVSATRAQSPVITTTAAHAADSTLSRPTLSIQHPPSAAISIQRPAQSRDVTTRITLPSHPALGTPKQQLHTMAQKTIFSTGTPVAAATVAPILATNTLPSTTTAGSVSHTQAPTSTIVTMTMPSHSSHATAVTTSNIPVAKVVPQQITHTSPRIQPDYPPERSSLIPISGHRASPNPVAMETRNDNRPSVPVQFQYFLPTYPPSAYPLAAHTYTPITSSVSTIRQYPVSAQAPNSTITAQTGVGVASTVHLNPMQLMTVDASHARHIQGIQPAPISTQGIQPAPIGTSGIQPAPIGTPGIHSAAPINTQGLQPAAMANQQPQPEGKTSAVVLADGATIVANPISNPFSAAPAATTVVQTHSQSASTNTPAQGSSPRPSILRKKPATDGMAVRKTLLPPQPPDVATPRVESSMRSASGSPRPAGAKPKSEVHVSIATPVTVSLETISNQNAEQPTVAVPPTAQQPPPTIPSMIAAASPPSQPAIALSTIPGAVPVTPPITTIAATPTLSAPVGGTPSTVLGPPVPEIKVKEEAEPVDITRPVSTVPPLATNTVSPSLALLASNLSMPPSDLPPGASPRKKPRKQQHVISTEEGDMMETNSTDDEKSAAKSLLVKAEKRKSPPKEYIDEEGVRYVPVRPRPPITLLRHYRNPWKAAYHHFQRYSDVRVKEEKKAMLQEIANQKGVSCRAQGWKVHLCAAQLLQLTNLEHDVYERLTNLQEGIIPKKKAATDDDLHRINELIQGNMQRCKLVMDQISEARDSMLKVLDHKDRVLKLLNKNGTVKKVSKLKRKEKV
UniProt Q8BUB4: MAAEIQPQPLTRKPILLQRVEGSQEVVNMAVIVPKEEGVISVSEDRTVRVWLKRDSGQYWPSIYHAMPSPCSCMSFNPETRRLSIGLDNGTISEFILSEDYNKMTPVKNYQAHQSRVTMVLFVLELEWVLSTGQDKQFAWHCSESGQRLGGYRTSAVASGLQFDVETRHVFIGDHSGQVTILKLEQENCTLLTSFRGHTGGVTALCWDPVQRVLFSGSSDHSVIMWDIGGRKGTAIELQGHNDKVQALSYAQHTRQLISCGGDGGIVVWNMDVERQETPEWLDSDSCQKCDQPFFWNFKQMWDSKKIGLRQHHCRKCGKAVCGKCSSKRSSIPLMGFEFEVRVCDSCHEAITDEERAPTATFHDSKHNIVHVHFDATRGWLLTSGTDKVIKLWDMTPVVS
UniProt Q8BT51: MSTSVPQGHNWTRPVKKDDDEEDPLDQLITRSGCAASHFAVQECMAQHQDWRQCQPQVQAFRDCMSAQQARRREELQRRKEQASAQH
UniProt Q8BUM3: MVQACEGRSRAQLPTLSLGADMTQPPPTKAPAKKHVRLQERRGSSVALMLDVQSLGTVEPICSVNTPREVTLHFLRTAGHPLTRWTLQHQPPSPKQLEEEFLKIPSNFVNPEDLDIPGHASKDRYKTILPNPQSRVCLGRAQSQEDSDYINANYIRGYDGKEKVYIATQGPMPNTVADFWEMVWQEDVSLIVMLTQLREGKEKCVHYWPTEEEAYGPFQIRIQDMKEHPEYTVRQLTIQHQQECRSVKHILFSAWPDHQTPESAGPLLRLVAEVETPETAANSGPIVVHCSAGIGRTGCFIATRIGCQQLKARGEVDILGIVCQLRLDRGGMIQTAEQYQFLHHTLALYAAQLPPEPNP
UniProt Q8BSD5: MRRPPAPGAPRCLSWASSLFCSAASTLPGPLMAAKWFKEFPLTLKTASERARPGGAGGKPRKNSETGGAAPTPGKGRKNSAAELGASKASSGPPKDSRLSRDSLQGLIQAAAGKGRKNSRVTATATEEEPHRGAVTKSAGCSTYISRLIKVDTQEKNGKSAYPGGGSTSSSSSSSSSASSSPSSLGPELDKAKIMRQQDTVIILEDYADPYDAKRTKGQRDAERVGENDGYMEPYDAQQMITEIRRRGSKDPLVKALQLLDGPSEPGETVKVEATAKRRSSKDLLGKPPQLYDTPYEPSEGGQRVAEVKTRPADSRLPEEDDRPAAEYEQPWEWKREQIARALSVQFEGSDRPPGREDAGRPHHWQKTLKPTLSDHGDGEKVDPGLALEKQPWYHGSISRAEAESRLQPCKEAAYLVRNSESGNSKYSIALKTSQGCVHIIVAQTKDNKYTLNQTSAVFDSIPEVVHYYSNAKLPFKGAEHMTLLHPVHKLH
UniProt Q8BQH4: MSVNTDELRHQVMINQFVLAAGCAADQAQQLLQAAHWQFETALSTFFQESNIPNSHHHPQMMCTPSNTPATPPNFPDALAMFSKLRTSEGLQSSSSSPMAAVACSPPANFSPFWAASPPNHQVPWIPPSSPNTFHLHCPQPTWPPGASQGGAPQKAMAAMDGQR
UniProt Q8BJW5: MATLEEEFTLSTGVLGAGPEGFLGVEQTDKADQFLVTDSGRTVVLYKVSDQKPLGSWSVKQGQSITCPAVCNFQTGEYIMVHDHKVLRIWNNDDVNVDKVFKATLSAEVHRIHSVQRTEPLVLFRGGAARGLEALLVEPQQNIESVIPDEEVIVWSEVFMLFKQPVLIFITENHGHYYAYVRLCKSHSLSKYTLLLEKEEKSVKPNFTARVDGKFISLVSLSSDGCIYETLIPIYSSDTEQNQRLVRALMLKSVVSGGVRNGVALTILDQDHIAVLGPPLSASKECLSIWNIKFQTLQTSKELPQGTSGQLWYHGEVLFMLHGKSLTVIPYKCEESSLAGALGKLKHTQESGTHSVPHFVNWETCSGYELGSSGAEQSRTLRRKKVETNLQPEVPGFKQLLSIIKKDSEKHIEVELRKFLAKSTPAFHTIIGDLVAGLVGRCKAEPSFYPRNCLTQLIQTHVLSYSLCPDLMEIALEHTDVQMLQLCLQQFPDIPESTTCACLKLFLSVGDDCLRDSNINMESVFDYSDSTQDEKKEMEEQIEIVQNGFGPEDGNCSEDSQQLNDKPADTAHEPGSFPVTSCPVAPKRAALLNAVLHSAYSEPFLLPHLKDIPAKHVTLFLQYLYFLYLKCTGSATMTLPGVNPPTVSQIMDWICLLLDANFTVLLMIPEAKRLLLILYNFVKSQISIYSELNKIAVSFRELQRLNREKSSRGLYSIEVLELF
UniProt Q8BPU7, whole entry: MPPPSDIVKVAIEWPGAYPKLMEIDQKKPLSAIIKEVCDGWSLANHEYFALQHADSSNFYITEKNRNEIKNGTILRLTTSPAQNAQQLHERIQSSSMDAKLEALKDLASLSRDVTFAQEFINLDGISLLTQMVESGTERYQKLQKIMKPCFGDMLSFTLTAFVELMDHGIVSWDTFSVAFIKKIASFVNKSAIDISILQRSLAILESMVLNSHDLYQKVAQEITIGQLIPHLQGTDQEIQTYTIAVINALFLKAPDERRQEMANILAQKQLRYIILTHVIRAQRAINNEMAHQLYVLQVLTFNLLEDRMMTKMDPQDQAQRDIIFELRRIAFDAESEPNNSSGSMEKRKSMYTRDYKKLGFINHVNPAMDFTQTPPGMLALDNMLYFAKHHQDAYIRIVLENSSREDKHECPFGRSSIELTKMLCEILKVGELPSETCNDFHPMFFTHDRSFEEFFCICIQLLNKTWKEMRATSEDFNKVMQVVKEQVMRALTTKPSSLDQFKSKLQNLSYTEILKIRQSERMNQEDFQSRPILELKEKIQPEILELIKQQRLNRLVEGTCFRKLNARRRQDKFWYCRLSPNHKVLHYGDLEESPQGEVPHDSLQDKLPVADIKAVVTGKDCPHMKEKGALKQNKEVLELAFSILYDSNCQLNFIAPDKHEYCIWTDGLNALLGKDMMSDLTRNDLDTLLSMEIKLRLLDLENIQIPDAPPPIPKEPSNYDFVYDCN

What follows are targets tested with CN[C@@H]1C[C@H]2O[C@@](C)([C@@H]1OC)n1c3ccccc3c3c4c(c5c6ccccc6n2c5c31)C(=O)NC4 [staurosporine] (assay: log2 fold change of tryptic peptide abundance, ligand vs vehicle (limited proteolysis) (log2 ratio); higher = more trypsin-susceptible (destabilized)). Conditions: ligand concentration: 20 uM; sample: mouse liver crude lysate; replicate design: treated separately.
“UniProt Q8BUI3 (peptide sequence: APLTPQLLLQR, peptide start residue: 2)” was tested, and the log2 fold change was -0.0521.
For “UniProt Q8BL97 (peptide sequence: VYVGNLGTGAGKGELER, peptide start residue: 42)”, the log2 fold change was -0.172.
With “UniProt Q8BMJ2 (peptide sequence: NMETFCEESR, peptide start residue: 551)” the log2 fold change was 0.217.
For “UniProt Q8BUR3 (peptide sequence: SDATQNAHGTGISKK, peptide start residue: 42)”, the log2 fold change was -0.175.
Work on “UniProt Q8BTY2 (peptide sequence: FEKEELESHR, peptide start residue: 37)” yielded a log2 fold change of -0.193.
“UniProt Q8BL06 (peptide sequence: LTLHDASSSTHSR, peptide start residue: 774)” gave a log2 fold change of 0.491.
“UniProt Q8BQR4 (peptide sequence: YGVEALLHR, peptide start residue: 268)” was tested, and the log2 fold change was 0.257.
Target “UniProt Q8BTC1 (peptide sequence: RHEPHVSQQ, peptide start residue: 59)” has a log2 fold change of 0.0224.
“UniProt Q8BJ71 (peptide sequence: GLFEEAAK, peptide start residue: 620)” gave a log2 fold change of 0.142.
“UniProt Q8BTQ0 (peptide sequence: QREFYHK, peptide start residue: 93)” showed a log2 fold change of -0.52.
With “UniProt Q8BQN6 (peptide sequence: TSLIVHVR, peptide start residue: 197)” the log2 fold change was 0.227.
“UniProt Q8BMS4 (peptide sequence: GETGALHANTSGSPSVR, peptide start residue: 349)” showed a log2 fold change of -0.141.
“UniProt Q8BU03 (peptide sequence: EKEEEEEDEEEGDRETTIR, peptide start residue: 240)” was tested, and the log2 fold change was 0.102.
“UniProt Q8BMJ7 (peptide sequence: YFKQCPMCR, peptide start residue: 301)” was tested, and the log2 fold change was -0.159.
Target “UniProt Q8BV13 (peptide sequence: ECPPHTEQR, peptide start residue: 239)” has a log2 fold change of -0.337.
In the case of “UniProt Q8BTE0 (peptide sequence: YGDWERK, peptide start residue: 92)”, the log2 fold change is reported as 0.309.
For “UniProt Q8BMB3 (peptide sequence: LLFQNLWKPR, peptide start residue: 232)”, the log2 fold change was 0.0106.
Work on “UniProt Q8BKH7 (peptide sequence: INAAHGFSLIQVDNTK, peptide start residue: 283)” yielded a log2 fold change of -0.153.
“UniProt Q8BQM4 (peptide sequence: FIAYQETVEKR, peptide start residue: 666)” was tested, and the log2 fold change was -0.167.
Target “UniProt Q8BIH0 (peptide sequence: KAMLQEIANQK, peptide start residue: 936)” has a log2 fold change of 0.385.
For “UniProt Q8BUB4 (peptide sequence: GWLLTSGTDK, peptide start residue: 379)”, the log2 fold change was 0.177.
“UniProt Q8BJ37 (peptide sequence: HVSSPDVTTAQK, peptide start residue: 116)” was tested, and the log2 fold change was 0.0743.
With “UniProt Q8BT51 (peptide sequence: KDDDEEDPLDQLITR, peptide start residue: 17)” the log2 fold change was 0.235.
“UniProt Q8BUM3 (peptide sequence: EVTLHFLR, peptide start residue: 69)” was tested, and the log2 fold change was 0.476.
In the case of “UniProt Q8BSD5 (peptide sequence: EDAGRPHHWQK, peptide start residue: 357)”, the log2 fold change is reported as -0.831.
“UniProt Q8BQH4 (peptide sequence: AMAAMDGQR, peptide start residue: 156)” gave a log2 fold change of -0.0259.
“UniProt Q8BRJ4 (peptide sequence: HVQVQLQR, peptide start residue: 115)” showed a log2 fold change of -0.0111.
Work on “UniProt Q8BJ56 (peptide sequence: LGDHLPSR, peptide start residue: 387)” yielded a log2 fold change of 0.257.
“UniProt Q8BJW5 (peptide sequence: QLLSIIKK, peptide start residue: 399)” was tested, and the log2 fold change was -0.146.
“UniProt Q8BNA6 (peptide sequence: TGLITTTSR, peptide start residue: 1201)” gave a log2 fold change of -0.0431.
With “UniProt Q8BQB4 (peptide sequence: RLDFLAK, peptide start residue: 416)” the log2 fold change was 0.109.
Work on “UniProt Q8BU14 (peptide sequence: MKYDKDVK, peptide start residue: 100)” yielded a log2 fold change of -0.2.
Target “UniProt Q8BP97 (peptide sequence: SSPAHCTGTGAS, peptide start residue: 374)” has a log2 fold change of 0.238.
For “UniProt Q8BPU7 (peptide sequence: RQEMANILAQK, peptide start residue: 259)”, the log2 fold change was -0.349.
“UniProt Q8BU85 (peptide sequence: LTPLQYHVTQEK, peptide start residue: 114)” was tested, and the log2 fold change was -0.21.
“UniProt Q8BIP0 (peptide sequence: EFLVPSREPGK, peptide start residue: 224)” was tested, and the log2 fold change was 0.0877.
